Results deposited as PubChem BioAssay AID652243 (Drosophila RNAi Screening Center, 2013).
Assay: 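Fly genes required for human androgen receptor driven transcription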 (primary screen). Cells: Drosophila S2R+ cells. Knock-down reagent: long dsRNA against Drosophila genes. Time to read-out: 72 h (48 h, then 24 h hormone). Challenge: synthetic androgen R1881 at 10 nM for 24 h. Measured: 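Firefly light from an androgen-responsive reporter and Renilla control light per well, raw and unnormalised, for each of two replicates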. Scale: firefly reporter light: higher = more light from androgen-responsive reporter; Renilla control light: higher = more constitutive control signal (cell number, transfection). Rule for the call: 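Across duplicate plates, a knock-down whose log firefly/Renilla ratio shifted a set fold down or up from the GFP/LacZ control mean was a hit; the downward cut appears as both 1.5 and 3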. Meaning of the calls: active = hit: reporter lowered or raised; inactive = no hit.
The deposit covers about 24,000 reagents; this is an unselected part of those with a known target gene and a result. In the full data, 246 (1%) are marked active. 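Plates not normalised; calls are printed but the firefly/Renilla ratio behind them is not deposited; fold cut for lowering reported inconsistently.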 The raw values are shown without normalisation. A plus sign joins genes that one reagent is predicted to hit. No sequences are given here. Not stated in the record: the amount of reagent.

gene knocked down	amplicon	firefly reporter light, replicate 1	firefly reporter light, replicate 2	Renilla control light, replicate 1	Renilla control light, replicate 2	activity call
CG11816	DRSC19428	1.62e5	1.61e5	2.78e6	2.63e6	inactive
CG11816	DRSC23612	7.98e5	1.03e6	1.09e6	1.02e6	inactive
twz	DRSC04069	2.65e5	2.35e5	1.42e6	8.58e5	inactive
twz	DRSC25832	3.42e5	4.04e5	1.16e6	9.64e5	inactive
AANATL5	DRSC05994	1.03e5	1.28e5	1.84e6	2.04e6	inactive
CG33095	DRSC14441	1.65e5	1.12e5	2.00e6	1.22e6	inactive
pyx	DRSC08510	1.05e5	97057	1.06e6	1.05e6	inactive
pyx	DRSC08511	72333	62122	1.23e6	1.11e6	inactive
pyx	DRSC28167	6.00e5	4.69e5	1.37e6	1.33e6	inactive
CR1075	DRSC12144	58697	68835	1.60e6	1.27e6	inactive
Polr3H	DRSC10817	2.79e5	2.12e5	2.96e6	2.29e6	inactive
CG11227	DRSC20476	2.22e5	1.18e5	5.82e5	2.86e5	inactive
CG11227	DRSC29906	9.25e5	8.76e5	1.67e6	1.77e6	inactive
Grip	DRSC18395	2.59e5	3.05e5	2.99e6	3.49e6	inactive
Grip	DRSC26610	2.93e5	2.76e5	6.37e5	7.84e5	inactive
CG5828	DRSC02900	90483	1.60e5	1.21e6	1.22e6	inactive
CG5828	DRSC24456	7.19e5	7.10e5	9.55e5	9.41e5	inactive
Iml1	DRSC08249	7.63e5	1.53e6	7.46e5	2.19e6	inactive
Pef	DRSC06695	1.27e6	6.21e5	2.15e6	1.22e6	inactive
IntS12	DRSC15818	1.84e5	1.59e5	2.29e6	2.32e6	inactive
CG33465	DRSC05587	1.08e5	1.67e5	4.49e5	3.62e5	inactive
CG13160	DRSC06284	4.30e5	4.60e5	1.27e6	1.03e6	inactive
CheB42c	DRSC04972	3.32e5	2.14e5	2.03e6	1.65e6	inactive
CheB42c	DRSC27357	2.44e5	2.87e5	5.80e5	5.83e5	inactive
CG7083	DRSC11136	2.02e5	2.23e5	2.49e6	2.69e6	inactive
CG7083	DRSC24327	6.04e5	8.46e5	8.52e5	9.24e5	inactive
CG17078	DRSC00484	73256	98687	5.27e5	6.41e5	inactive
CG17078	DRSC24862	8.02e5	9.53e5	7.59e5	5.10e5	inactive
Irk3	DRSC02047	1.13e5	1.74e5	1.20e6	1.14e6	inactive
CG10651	DRSC02086	92588	1.11e5	9.70e5	1.25e6	inactive
sqh	DRSC18837	67791	73405	8.31e5	5.92e5	inactive
sqh	DRSC23800	1.81e5	2.44e5	6.40e5	5.39e5	inactive
lcs	DRSC20580	1.88e5	2.40e5	4.07e5	5.05e5	inactive
lcs	DRSC25611	6.01e5	4.22e5	4.11e5	4.70e5	inactive
Bem46	DRSC00275	1.48e5	95394	1.07e6	9.46e5	inactive
CG8950	DRSC07300	6.65e5	3.06e5	6.35e5	3.51e5	inactive
jp	DRSC02213	8.27e5	5.87e5	2.14e6	2.30e6	inactive
CG8526	DRSC16438	1.61e5	1.21e5	1.99e6	1.80e6	inactive
CG8526	DRSC26422	4.06e5	4.85e5	5.82e5	5.79e5	inactive
CG3038	DRSC18618	1.88e5	2.56e5	2.53e6	2.43e6	inactive
CG14818	DRSC18548	2.09e5	2.31e5	2.31e6	3.09e6	inactive
CG14818	DRSC29496	7.57e5	6.37e5	1.71e6	1.71e6	inactive
mei-217 + mei-218	DRSC20349	1.27e5	1.22e5	2.25e6	2.47e6	inactive
CG13721	DRSC08330	1.32e5	1.88e5	2.35e6	2.68e6	inactive
CG7140	DRSC11799	1.91e5	1.18e5	1.54e6	1.80e6	inactive
Rpt3	DRSC20283	2.34e5	2.00e5	2.06e6	2.27e6	inactive
Rpt3	DRSC23412	3.16e5	1.59e5	8.51e5	2.98e5	inactive
CG13258	DRSC02244	1.70e5	1.37e5	2.70e6	1.85e6	inactive
CG13722	DRSC08331	2.35e5	2.30e5	2.19e6	2.60e6	inactive
CG13722	DRSC21616	9.25e5	7.57e5	3.68e6	2.76e6	inactive
CG13722	DRSC24663	8.69e5	6.78e5	7.61e5	6.72e5	inactive
CG14034	DRSC02359	1.05e5	72181	8.76e5	6.82e5	inactive
CG42819	DRSC02264	1.32e5	1.43e5	1.21e6	1.09e6	inactive
mRpS29	DRSC04398	6.29e5	5.87e5	1.07e6	1.03e6	inactive
mRpS29	DRSC27790	5.20e5	3.73e5	7.30e5	7.19e5	inactive
Tm1	DRSC13082	66885	59133	1.15e5	1.17e5	inactive
Tm1	DRSC13083	1.09e5	72392	1.86e5	1.66e5	inactive
Tm1	DRSC16886	1.16e5	61787	7.48e5	6.98e5	inactive
Tm1	DRSC25249	2.82e5	3.16e5	7.66e5	5.73e5	inactive
Tm1	DRSC39135	6.89e5	5.06e5	1.23e6	1.42e6	inactive
Polr3B	DRSC07536	1.15e6	1.33e6	1.45e6	1.49e6	inactive
CG33301	DRSC02778	1.41e5	1.23e5	8.59e5	8.04e5	inactive
CG33301	DRSC25325	6.43e5	6.39e5	1.08e6	1.07e6	inactive
Mtl	DRSC16751	2.61e5	2.16e5	2.60e6	3.26e6	inactive
omd	DRSC16507	95296	1.01e5	5.33e5	5.50e5	inactive
omd	DRSC29369	1.09e6	1.02e6	1.47e6	1.47e6	inactive
CG5096	DRSC02813	1.08e5	79267	9.60e5	6.11e5	inactive
PIP82	DRSC18694	1.85e5	2.00e5	1.99e6	1.82e6	inactive
PIP82	DRSC25335	4.86e5	3.62e5	4.39e5	4.64e5	inactive
CG30049	DRSC21345	7.94e5	6.88e5	2.76e6	2.20e6	inactive
CG30049	DRSC26709	2.17e5	2.02e5	7.91e5	5.87e5	inactive
Eaat2	DRSC00032	1.74e5	3.37e5	5.20e5	5.79e5	inactive
Eaat2	DRSC00749	9.15e5	7.07e5	3.22e6	2.98e6	inactive
Eaat2	DRSC26070	2.37e5	3.79e5	5.14e5	6.33e5	inactive
